The source of these data is PubChem BioAssay AID1347423 (Functional Genomics Laboratory (NCATS/FGL), 2020).

The campaign covered roughly 52,000 sequences. About 210 (0.4%) were called active.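 Rule for the calls: active = gene whose silencing raises cell survival under the drug, median off-target-corrected z-score across its silencing RNAs 2 or more; inactive = the rest.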 The list shows a part of the results.

This test in a line: Resistance to Poly (ADP-Ribose) Polymerase inhibitor: Gene Identification via Genome-wide siRNA Screen. The conditions noted are these: mouse BRCA2 R2336H ES cells, olaparib, CellTiter-Glo viability; hits give high values. Put shortly:
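Mouse BRCA2 R2336H ES cells were reverse-transfected with siRNA (20 nM final), treated at 48 h with 500 nM olaparib, and read by CellTiter-Glo after 72 h. Scores: MAD-based z per siRNA, median per gene, seed off-target correction.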
Background: In ATP-based viability assays light output follows the ATP content of the culture.
Turning to GGCAAUCCAGACGAUAUCUTT against Abca1, the z-score was inactive: 4.5.

GGCCUGGAGGACUUUAUAATT against Cyp2a4: the z-score is inactive: -2.09.

With GCAGGAGACGCAAUAGAAATT against Dte, the z-score is inactive: -0.373.

GGUGUCACCAAGAAUGAUGTT against Ceacam10: the z-score is inactive: -0.636.

In the case of GCAUGCUUACGGUCUCCAATT against Ccl1, the z-score was inactive: -0.775.

As to GGCGAAUCUCAUUAGGGAGTT against Ndor1, the z-score was inactive: 0.378.

On to CCUGUGAAAAUUUUAGUGCTT against Pms1, for which the z-score is inactive: 0.131.

Consider “CCUGAGAUUGGGAAAUUCUTT against D230014K01Rik”, for which the z-score is inactive: 0.781.

For “CCCUGGUAUUGGUUUCACATT against 0610007A15Rik”, the z-score was inactive: 1.03.

As to GGAAUGGUAUUUCUAUUGUTT against Plek, the z-score was inactive: 0.00705.

Turning to AAGGGUGCCUUAAAAAAACTT against Olfr136, the z-score is inactive: 0.526.

As for “GGGAACAAGAUGCUCUGUGTT against Ng23-pending”, the z-score was inactive: 1.07.

For “GCUGCGAUAUUUAAUUCAGTT against 2410193C02Rik”, the z-score was inactive: 1.35.

Turning to GCAUAUGUGUGUUUAACCUTT against Rdh6, the z-score is inactive: -0.323.

For GCGGUACAACCAAAAAGACTT against AI507495, the z-score was inactive: -1.62.

For GGCGGAUUCAGUCAGCUUUTT against Trim47, the z-score is inactive: -0.125.

Turning to GGAUGUAAAAGAGACUGUGTT against Olfr1176, the z-score is inactive: -0.389.

“GGACAAUGUGCAUUCUCACTT against D1Ertd251e”: the z-score is inactive: 0.654.

Take “GGCGAAGAAGACAGAAAAGTT against 1700012L04Rik”: the z-score was inactive: 0.453.

Regarding “GCAGUAGAGGAGCAAUAUUTT against 1810057P16Rik”, the z-score is inactive: 0.921.

Take GGAACAUUUGAAGUGCAAATT against Ilf2: the z-score is inactive: 0.157.

Regarding GGAUCAAUGCACCUUCCAATT against Gpr85, the z-score was inactive: -0.724.

As to GGGUGUUGACAGCUGUAAATT against C1sb, the z-score was inactive: -0.716.

On to GUAUGCUGUGAGCCUUGUCTT against Sprr2b, for which the z-score was inactive: -2.19.

GCUCUCCUUGCACUUUACATT against Syt4: the z-score is inactive: 1.86.

GGCUACUUUCUGAAUUUUCTT against Ror2: the z-score is inactive: 1.08.

With GGGACCUUUUCAGGACCUUTT against Ucp2, the z-score was inactive: 0.798.

For the sequence GGAGGAGGGAUCACAAGAATT against Mrpl23, the z-score is inactive: -2.31.

For the sequence CCCUUUCGUUCUUUACUUUTT against Olfr506, the z-score was inactive: 1.07.

As for GGCAGAUUCAGAAUUGUCUTT against Il17, the z-score is inactive: -1.04.

In the case of GGAGGGAAUGAAAAGUCAATT against Stard7, the z-score is inactive: -0.342.

CCUGAAGUUUGACUGUUUATT against Adam30: the z-score is inactive: -0.964.

As for GGCAAUGGCACUGAAGUCATT against Olfr994, the z-score is inactive: 1.39.

Regarding GCGGCUUAAAGACCUGUUGTT against Sdhc, the z-score was inactive: -1.13.

For “GCCACGACACGAUGACAUATT against A330045H12Rik”, the z-score is inactive: -0.0169.

As for GGUAAUCCGAGCCAACAUUTT against Gpt2, the z-score was inactive: -0.846.

GGCAGUGUACAUCUGGAUATT against Olfr611: the z-score was inactive: 0.716.

For the sequence “GGUGGUAAAUAAUUAAGGATT against 1200003C23Rik”, the z-score was inactive: 0.171.

In the case of “GGUGGAGCAGAUGAAGAACTT against 1500019G21Rik”, the z-score was inactive: 0.329.

For the sequence “GGCUCACAUUGUAACUUAGTT against 4833428E21Rik”, the z-score was inactive: 1.16.

In the case of GGCAUGAACCAUUCAGUAATT against Ifnar1, the z-score is inactive: -1.77.

Turning to GGUUACUGGGUGAUAAGAATT against Mipep, the z-score was inactive: 1.1.

Take CCACAAUCUGUUAACUUUGTT against Serpinb10: the z-score is inactive: 0.163.

For the sequence GGAGUUUGAGACACUCUGCTT against Apg4d, the z-score was inactive: 0.266.

Regarding GGAAAUUCACACAGAUGAATT against Pip3ap, the z-score is inactive: 2.21.

GGGAAAGGUGUUCCAGUUATT against Chchd7: the z-score is inactive: -1.85.

As to “CGGACAAGAUAAAGUGUGUTT against 4930504O13Rik”, the z-score is inactive: 0.5.

GGACUGCACAGUUAUGGUGTT against Coro1a: the z-score is inactive: 1.2.

For GGAAAGAUUCCGAACAAUUTT against Rab8b, the z-score is inactive: -1.25.

For the sequence GGCAAGAGUGAAUUUAAGATT against Nt5e, the z-score is inactive: -0.341.

Take GGAUGAGAGAAAGUUACCCTT against Bzrpl1: the z-score is inactive: 1.79.

“GGCCUCUUACAAAGUGAGATT against 2610524B01Rik”: the z-score is inactive: -0.53.

Take GGCUAGCACCAAAUUCUUGTT against Fbxo40: the z-score was inactive: -0.741.

On to GCAAAUGACUUGCCCAAAUTT against Zfp639, for which the z-score is inactive: -2.39.

For the sequence GGCUCUCUUUAGAACAGACTT against Rad17, the z-score is inactive: -0.663.

As to GGAUCUCCGCUCAUCAGAUTT against Slc14a2, the z-score is inactive: 1.21.

Consider GAAGAGUCCAACAACCAAATT against Mrpl53, for which the z-score was inactive: -0.149.

Regarding GCAUCAUCGAAUAAUCAUCTT against Egf, the z-score is inactive: 1.65.

Regarding “CGGAGCUCAAACAUCUGAUTT against 1810035L17Rik”, the z-score was inactive: -2.28.

On to GGAGAAAUGCCAUUGCGUCTT against Wnt3, for which the z-score is inactive: -0.218.

In the case of CCCACUUACUUUUGAUGUUTT against Ube1x, the z-score was inactive: -3.41.

Regarding GCUUAAUCCGGCUACCACUTT against Sepn1, the z-score is inactive: -0.555.

Take CCUCAAGUUUGCCAUCAGGTT against Hps4: the z-score was inactive: 1.94.

Turning to GCCAGUCAGAUGUACAGUCTT against Pbx1, the z-score is inactive: -1.09.

In the case of “GCGAAAUCAACAGUCAAUUTT against A730011L11”, the z-score was inactive: 0.258.

Consider CCAGAUGUGAUCUUAAAACTT against Zfp334, for which the z-score was inactive: -0.303.

Turning to GCUGGUUAAGUCCUAUCACTT against Klrk1, the z-score was inactive: 1.43.
